The target in this assay is IGF2BP1 (as used in Supplementary Fig. 10a, b) (UniProt Q9NZI8). Nature of the assay: co-IP; Supplementary Fig. 10a, b: interaction of IGF2BP1 with RNA stabilizers with RBRP or RBRP G19A expressed; RNA-independent; set-up not shown.

Protein sequences, listed by entry. Tags and fused reporters are not part of them.
UniProt Q9NZI8: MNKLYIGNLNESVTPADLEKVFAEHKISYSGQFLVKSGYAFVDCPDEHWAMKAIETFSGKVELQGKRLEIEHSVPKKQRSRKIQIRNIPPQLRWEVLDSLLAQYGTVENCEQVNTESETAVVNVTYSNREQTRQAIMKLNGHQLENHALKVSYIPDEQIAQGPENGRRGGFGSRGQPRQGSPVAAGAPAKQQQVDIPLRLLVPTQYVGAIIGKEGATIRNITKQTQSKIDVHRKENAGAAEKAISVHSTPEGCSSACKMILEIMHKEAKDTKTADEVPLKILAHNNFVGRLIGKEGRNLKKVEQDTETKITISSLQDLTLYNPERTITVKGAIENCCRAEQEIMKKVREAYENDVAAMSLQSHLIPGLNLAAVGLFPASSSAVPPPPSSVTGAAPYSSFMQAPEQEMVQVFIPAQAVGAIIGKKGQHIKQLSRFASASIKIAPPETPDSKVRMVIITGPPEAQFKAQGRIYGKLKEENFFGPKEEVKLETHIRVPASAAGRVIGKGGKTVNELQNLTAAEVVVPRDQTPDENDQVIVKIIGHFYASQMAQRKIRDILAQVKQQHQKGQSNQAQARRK
UniProt P11940: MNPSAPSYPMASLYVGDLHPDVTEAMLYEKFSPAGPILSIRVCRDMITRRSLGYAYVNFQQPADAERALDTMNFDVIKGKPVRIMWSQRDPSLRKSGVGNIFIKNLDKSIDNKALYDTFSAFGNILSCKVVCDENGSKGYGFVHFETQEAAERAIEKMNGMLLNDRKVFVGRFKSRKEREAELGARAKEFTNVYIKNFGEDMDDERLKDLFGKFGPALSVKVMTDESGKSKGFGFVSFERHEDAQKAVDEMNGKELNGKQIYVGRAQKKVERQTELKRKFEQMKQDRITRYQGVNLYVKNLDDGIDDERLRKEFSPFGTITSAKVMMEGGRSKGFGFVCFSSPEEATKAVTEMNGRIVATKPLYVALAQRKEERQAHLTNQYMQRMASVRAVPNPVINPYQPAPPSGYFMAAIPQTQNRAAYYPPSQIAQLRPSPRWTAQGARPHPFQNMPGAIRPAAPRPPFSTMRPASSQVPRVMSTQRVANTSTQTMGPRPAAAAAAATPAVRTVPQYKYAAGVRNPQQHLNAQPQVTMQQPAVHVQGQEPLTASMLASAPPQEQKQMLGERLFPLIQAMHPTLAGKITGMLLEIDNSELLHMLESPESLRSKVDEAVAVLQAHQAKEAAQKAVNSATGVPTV

No constants are given. Whether binding was seen depends on the method and setting. Binding seen in cells or lysates may run through a third protein. Some binding calls cover weakened binding; strength is not graded here.

Drawing on publication PMC7125119, “An oncopeptide regulates m6A recognition by the m6A reader IGF2BP1 and tumorigenesis”, this text covers binding for two molecules.

PABPC1 (from UniProt P11940 1-636): the binding entry is recorded as “binds”.

B1: MATR3 (protein, UniProt P43243 1-847)
chain: MSKSFQQSSLSRDSQGHGRDLSAAGIGLLAAATQSLSMPASLGRMNQGTARLASLMNLGMSSSLNQQGAHSALSSASTSSHNLQSIFNIGSRGPLPLSSQHRGDADQASNILASFGLSARDLDELSRYPEDKITPENLPQILLQLKRRRTEEGPTLSYGRDGRSATREPPYRVPRDDWEEKRHFRRDSFDDRGPSLNPVLDYDHGSRSQESGYYDRMDYEDDRLRDGERCRDDSFFGETSHNYHKFDSEYERMGRGPGPLQERSLFEKKRGAPPSSNIEDFHGLLPKGYPHLCSICDLPVHSNKEWSQHINGASHSRRCQLLLEIYPEWNPDNDTGHTMGDPFMLQQSTNPAPGILGPPPPSFHLGGPAVGPRGNLGAGNGNLQGPRHMQKGRVETSRVVHIMDFQRGKNLRYQLLQLVEPFGVISNHLILNKINEAFIEMATTEDAQAAVDYYTTTPALVFGKPVRVHLSQKYKRIKKPEGKPDQKFDQKQELGRVIHLSNLPHSGYSDSAVLKLAEPYGKIKNYILMRMKSQAFIEMETREDAMAMVDHCLKKALWFQGRCVKVDLSEKYKKLVLRIPNRGIDLLKKDKSRKRSYSPDGKESPSDKKSKTDGSQKTESSTEGKEQEEKSGEDGEKDTKDDQTEQEPNMLLESEDELLVDEEEAAALLESGSSVGDETDLANLGDVASDGKKEPSDKAVKKDGSASAAAKKKLKKVDKIEELDQENEAALENGIKNEENTEPGAESSENADDPNKDTSENADGQSDENKDDYTIPDEYRIGPYQPNVPVGIDYVIPKTGFYCKLCSLFYTNEEVAKNTHCSSLPHYQKLKKFLNKLAEERRQKKET
In the case of B1, the binding entry is listed as “binds”.
